# Results are given in words; binding and its absence hold for the method and conditions named. In cells and extracts the contact can be indirect. A yes stands for co-enrichment or nearness to the bait. Other partners may have been found. For some assays here: A no says only that the protein was not detected with the bait. For some assays here: Where a sequence is shown, tags or fusion partners need not be part of it.
# The chains behind the UniProt entries cited, without tags or fusion partners. Where a name states a change or a piece, a line headed by the entry shows the natural chain unless it says otherwise.
# UniProt Q9HYR1: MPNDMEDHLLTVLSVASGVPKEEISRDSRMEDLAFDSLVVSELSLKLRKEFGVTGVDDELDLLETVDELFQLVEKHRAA
# UniProt O54439: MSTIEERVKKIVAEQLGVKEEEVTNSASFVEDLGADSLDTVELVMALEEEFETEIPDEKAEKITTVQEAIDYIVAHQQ
# Biological target: Acp3 with C-terminal SPA tag (strain CW21) (P. aeruginosa) (UniProt Q9HYR1)
# Assay: affinity purification with mass spectrometry; tandem (sequential peptide) affinity purification of chromosomally SPA-tagged ACPs from stationary-phase PAO1 lysates: anti-FLAG M2 magnetic beads, 0.1% Triton X-100, TEV cleavage, calmodulin Sepharose, 4°C; untagged PAO1 as control; only proteins identified in both of two experiments reported
row,binding,Binder
1,binds,"FabH2, 3-oxo-acyl-ACP synthase (enzyme, UniProt Q9HYR2 1-330) MPRAAVVCGLGSYLPEAVLSNDMLAAELDTSDAWISSRTGVRQRHIAGDLGSGDLALRAASAALASAGLERVDAVVLATSTGDFCCPATAPRVAARLGLVGALAFDLSAACTGFVYGLASVGSLISAGLADSALLVGVDTFSHTLDPADRSTRALFGDGAGAVVLRAGDAEEEGALLAFDLGSDGHQFDLLMTPAVSRAERSSGQASNYFRMDGKAVFGQAVTQMSDSVRRVLDRVGWQASDLHHLVPHQANTRILAAVADQLDLPVERVVSNIAEVGNTVAASIPLALAHGLRQGILRDGGNMVLTGFGAGLTWGSVALRWPKIVPTMD"
2,binds,"Fur, ferric uptake regulation protein (protein, UniProt Q03456 1-134) MVENSELRKAGLKVTLPRVKILQMLDSAEQRHMSAEDVYKALMEAGEDVGLATVYRVLTQFEAAGLVVRHNFDGGHAVFELADSGHHDHMVCVDTGEVIEFMDAEIEKRQKEIVRERGFELVDHNLVLYVRKKK"
3,binds,"KatA, catalase (endogenous) (enzyme, UniProt O52762 1-482) MEEKTRLTTAAGAPVVDNQNVQTAGPRGPMLLQDVWFLEKLAHFDREVIPERRMHAKGSAAYGTFTVTHDITPYTRAKIFSQVGKKTDMFLRFSTVAGERGAADAERDIRGFSMRFYTEQGNWDLVGNNTPVFYLRDPLKFPDLNHVVKRDPRTNLRNATFKWDFFSHLPESLHQLTIDFSDRGLPKSYRHIHGFGSHTFSFINANNERFWVKFHFKTQQGIENLTNAEAAEVIAQDRESSQRDLYESIEKGDFPRWKMYVQIMPEKEAATYRYNPFDLTKVWPHGDYPLIEVGFFELNRNPDNYFAEVEQAAFTPANVVPGIGFSPDKMLQGRLFSYGDAHRYRLGVNHHQIPVNAARCPHQVYHRDGGMRVDGNNAHQRVTYEPNSFNQWQEQPDFSEPPLSLEGAADHWNHRVDDDYYSQPAALFHLFTDEQKQRLFANIAEDIRDVPEQIQRRQIGLFLKVDPAYGKGVADALGLKLD"
4,binds,"ArcB, ornithine carbamoyltransferase (enzyme, UniProt P08308 1-336) MAFNMHNRNLLSLMHHSTRELRYLLDLSRDLKRAKYTGTEQQHLKRKNIALIFEKTSTRTRCAFEVAAYDQGANVTYIDPNSSQIGHKESMKDTARVLGRMYDAIEYRGFKQEIVEELAKFAGVPVFNGLTDEYHPTQMLADVLTMREHSDKPLHDISYAYLGDARNNMGNSLLLIGAKLGMDVRIAAPKALWPHDEFVAQCKKFAEESGAKLTLTEDPKEAVKGVDFVHTDVWVSMGEPVEAWGERIKELLPYQVNMEIMKATGNPRAKFMHCLPAFHNSETKVGKQIAEQYPNLANGIEVTEDVFESPYNIAFEQAENRMHTIKAILVSTLADI"

# Biological target: AcpP with C-terminal SPA tag (strain CW20) (P. aeruginosa) (UniProt O54439)
# Assay: as above
row,Binder,binding
1,"FabA, 3-hydroxydecanoyl-ACP dehydratase (enzyme, UniProt O33877 1-171) MTKQHAFTREDLLRCSRGELFGPGNAQLPAPNMLMIDRIVHISDVGGKYGKGELVAELDINPDLWFFACHFEGDPVMPGCLGLDAMWQLVGFYLGWQGNPGRGRALGSGEVKFFGQVLPTAKKVTYNIHIKRTINRSLVLAIADGTVSVDGREIYSAEGLRVGLFTSTDSF",binds
2,"CobL, precorrin-6Y C(5,15)-methyltransferase (enzyme, UniProt Q9HZU0 1-415) MSSADSTPPWLTLVGIGEDGYPGLGKQARRALLQASRIVGAARQLELLPPCIGAARETWPTPFSLEPLLARRGQPTCVLASGDPMLFGVGASLARQLPATELRVLPAPSSLSLAAARLGWALQEVACLSLVARPLAALQAQVHDGRRLLVLSNDGDSPAAIARLLNARGFGASRLSVLEHLGGPLERRLDGLAGDWSLPRAADLNLVAVECRAGAGAVRLPLTPGLADEAYRHDGQLTKRDVRAVTLARLAPCPGELLWDVGAGCGSIGIEWMRAHPSCRAIAIEANDERQEHIRHNRDALGVPTLHLVAGSAPEALLELPEPDAIFIGGGVTAEGVLETCWERLRPGGRLLANAVTLQSERVLLDWQQRLGGDLTRLGVAHARPLGGFDTWRQALPITLLELRKPAARKPPRDA",binds
3,"FabZ, 3-hydroxyacyl-ACP dehydratase (enzyme, UniProt Q9HXY7 1-146) MMDINEIREYLPHRYPFLLVDRVVELDIEGKRIRAYKNVSINEPFFNGHFPEHPIMPGVLIIEAMAQAAGILGFKMLDVKPADGTLYYFVGSDKLRFRQPVLPGDQLQLHAKFISVKRSIWKFDCHATVDDKPVCSAEIICAERKL",binds

# Next, values leading:
row,binding,Binder
1,binds,"LipB, octanoyltransferase (enzyme, UniProt Q9X6V9 1-217) MGLELGFRELGEVPYEPTWHAMQRFVAERDKSVMDEAWLLQHPAVFTQGQAGKAEHVLFPGDIPVIQVDRGGQVTYHGPGQLVTYLLLDVRRLGLGVRELVSRIEQSLIGLLASYDVQAVAKPDAPGVYVDGAKIASLGLRIRNGCSFHGLALNLDMDLRPFQRINPCGYAGMPMTQLRDLVGPVDFAEVCTRLRAELVSRLGYAEQKTLTGGIELT"
2,binds,"SpeE2, spermidine synthase 2 (enzyme, UniProt Q9HV34 1-349) MPAEVAAGLPPLPPNHFYFYPPDPLLEGDGAITAIEDSDPFDQYVYRLRRVLYQGRTRWQNVLIADTYNYDRVLMLDGAIQSAESDESLYHELLVQPAMLAHDEPRDVLIIGGGEGATLREVLSHASVRRAVMVDLDRELVELCREHLFQWHQGAFDDPRCELLAEDGRAYLERDPSLYDVVIIDVVDMLDNGPAQALYTRQFYELLHSRLRPGGVVAVQGLEFSHSDDKPHAALARTLRSVFSQVHSYRATVPSFLSSWGFLLASDWLDTNHWQAEDIDRRIERKLGPLWLDHLDGDYLKACFVMDRETRFLLAQPGPVLEDGVPFVAPPDIEEIEFGPAQLPALART"
3,no binding,"SpoT (enzyme, UniProt Q9HTM0 1-701) MPGIDAFADRLSSYLGPDQVNLVRRAYYYAEQAHDGQRRRSGEPYVTHPLAVSNILADMHMDHQSLMAAMLHDVIEDTGIAKEALTAQFGETVSELVDGVSKLTQMNFETKAEAQAENFQKMAMAMARDIRVILVKLADRLHNMRTLEVLSGEKRRRIAKETLEIYAPIANRLGMHTMRVEFEDLGFKAMHPMRAERIRQAVKKARGNRREIVGKIQESLVNCLAREGMEGQVIGREKHLYSIYQKMRGKRKAFNEIMDVYAFRIIVDKVDTCYRVLGAVHSLYKPFPGRFKDYIAIPKANGYQSLHTTLFGMHGVPIEIQIRTREMEEMANHGIAAHWLYKSNDETPKGTHARARQWVKGVLELQQRAGNSLEFIENVKIDLFPDEVYVFTPKGRIMELPKGSTAVDFAYAVHTDVGNSCIACRINRRLAPLSEPLQSGQTVEIVTAPGARPNPAWLSFVVTGKARTHIRHALKLQRRSESINLGERLLNKTLTGFDSHLEKIPQERIQAVLAEYRMEVFEDLLEEIGLGNRMAYVVARRLLSSEGEEAPSAEGPLAIRGTEGLVLSYAKCCTPIPGDPIVGHLSAGKGMVVHLESCKNISEVRHNPEKCIQLSWAKDVTGEFNVELRVELEHQRGLIALLATSVNAADGNIEKISMDERDGRISVVQLVVSVHDRVHLARVIKKLRALKGVIRITRLRS"
4,binds,"LpxD, UDP-3-O-acylglucosamine N-acyltransferase (enzyme, UniProt Q9HXY6 1-353) MMSTLSYTLGQLAAHVGAEVRGDADLPIQGLATLQEAGPAQLSFLANPQYRKYLPESRAGAVLLTAADADGFAGTALVVANPYLAYASLSHLFDRKPKAAAGIHPTAIVAADAEVDPSASVGAYAVIESGARIGAGVSIGAHCVIGARSVIGEGGWLAPRVTLYHDVTIGARVSIQSGAVIGGEGFGFANEKGVWQKIAQIGGVTIGDDVEIGANTTIDRGALSDTLIGNGVKLDNQIMIAHNVQIGDHTAMAACVGISGSAKIGRHCMLAGGVGLVGHIEICDNVFVTGMTMVTRSITEPGSYSSGTAMQPAAEWKKSAARIRQLDDMARRLQQLEKRLAAVTSSGDASSDA"

# Source: publication PMC6158461
